Measurements published in PMC3792344.
The exact form of at least one protein or probe is not confirmed. For some assays here: The comparison behind a weaker result is the experiment's own reference, which may not be listed here. For some assays here: At least one verdict rests on a figure or table, not on a statement of the authors.

Tests used:
[1] = biological target: MinDΔ10 (Escherichia coli) (UniProt P0AEZ3); test: SPR; conditions: SPR: buffer with 5% glycerol, 5 mM MgCl2; recombinant protein; protein details: His; label: biotin (on F strand)
MinD (Escherichia coli) = MinD (Escherichia coli) (UniProt P0AEZ3); test: SPR; conditions: apparent Kd from kon/koff; SPR: buffer with 5% glycerol, 5 mM MgCl2; recombinant protein; protein details: His; label: biotin (on F strand)

With “GAATCAGCGCCATTTATCACAGAATAGACT (double strand) [P1-prom-1-Biotin SPR duplex]” the binding result [1] was “binds more weakly” and the Kd (MinD (Escherichia coli)) was 0.6 µM.
